Experimental data published in PubChem BioAssay AID588497 (NMMLSC, 2011).
In all, about 360,000 compounds went through this assay and about 780 (0.22%) were called active. This list was built around the results that the source calls inconclusive (neither active nor inactive); the mix of calls is not that of the screen. No stated cut-off is given here; in the data, active means inhibition above about 35% (passing the limit was not always enough); inconclusive means no clear call, values can overlap the other calls.

These molecules were tested on Botulinum neurotoxin type F light chain protease (Clostridium botulinum) (assay: BoNT/F light chain protease inhibitors, primary screen, biochemical, flow cytometry, MLPCN library (AID 588497; further: plate controls were buffer without enzyme for full effect and enzyme alone for no effect)). Conditions: Multiplex microsphere protease cleavage assay, at 10 µM, active compounds read high.

Row | Structure (SMILES) | inhibition
1 | Cc1cccc(C(=O)NNC(=O)c2ccccc2Br)c1 | active: 44.8%
2 | CSC1=C(C#N)C(c2ccc(C)cc2)C2=C(CCCC2=O)N1 (stereo not drawn) | inconclusive: -22.9%
3 | CCCCCOCC1CC(C/C(C)=N/NC(N)=O)(C(=O)OCC)C(=O)O1 (stereo not drawn) | inconclusive: 1.6%
4 | O=C(O)/C=C/C(=O)Nc1ccc(Cl)cc1C(=O)c1ccccc1 | inconclusive: -29.1%
5 | CCCCOC(=O)C1C2C=C[C@]3(CN(C(C)c4ccc(OC)cc4)C(=O)[C@H]13)O2 (stereo partly drawn) | inactive: -1.6%
6 | O=C(NCCc1ccccc1)C1CCCN(S(=O)(=O)c2cccc3nonc23)C1 (stereo not drawn) | inactive: -1%
7 | CC1SCC(NC(=O)c2cccc(Cl)c2)CS1 (stereo not drawn) | inconclusive: -12.9%
8 | O=S(=O)(Nc1ccncc1)c1cc(Cl)ccc1Cl | inconclusive: -12.1%
9 | Cc1cccc(NC(=S)N(CCCN2CCOCC2)C(C)c2cc3ccccc3o2)c1C (stereo not drawn) | inactive: -6.5%
10 | O=C(CN1CCN(c2ccc(O)cc2)CC1)Nc1cc(S(=O)(=O)N2CCCC2)ccc1Cl | inactive: -4.6%
11 | COCc1cc(C)nc(OCC(=O)N/N=C/c2cccc(OC)c2)c1C#N | inconclusive: -27%
12 | Cc1nc(-c2nnc(SCC(=O)Nc3cc(C(F)(F)F)cc(C(F)(F)F)c3)n2C)cs1 | inconclusive: -6.3%
13 | Nc1c(C(=O)NCc2ccc3c(c2)OCO3)nnn1CC(=O)Nc1ccc(Br)cc1 | inactive: 0.5%
14 | COc1cccc(NC(=O)CN2C(=O)COc3ccc(S(=O)(=O)N4CCCCCC4)cc32)c1 | inactive: 8.5%
15 | O=C(Cc1cccs1)Nc1ccc(S(=O)(=O)N2CCCCC2)cc1 | inconclusive: 12.2%
16 | O=C(O)CCC(=O)c1ccc(C2CCCCCC2)cc1 | inactive: 0.4%
17 | COc1cc(C2=NOC(C(=O)N3CCN(c4ccc(F)cc4)CC3)C2)cc(OC)c1OC (stereo not drawn) | inactive: -2.5%
18 | O=C(Nc1ccc2c(c1)oc1ccccc12)c1cccnc1 | inactive: -10%
19 | CN1C(=O)C(O)(C2CCCCCC2=O)c2ccccc21 (stereo not drawn) | inconclusive: -24.7%
20 | COc1ccc(N=Cc2c(O)n(C)c(=O)[nH]c2=O)cc1 | inconclusive: -34.9%
21 | COc1ccc(OCC(=O)NCc2ccc(Cl)cc2)cc1 | inactive: -10.4%
22 | CC(Cc1ccccc1)NC(=O)C(c1ccc(N)cc1)c1ccc(N)cc1 (stereo not drawn) | inconclusive: 3.8%
23 | O=C(N=Nc1c(O)[nH]c2ccc([N+](=O)[O-])cc12)c1ccccc1Cl | inactive: -1%
24 | COc1ccc(C2=NN3C(C2)c2ccccc2OC3c2cccs2)cc1 (stereo not drawn) | inactive: -3.3%

Two of the compounds above, with tabs:
Row	Structure (SMILES)	inhibition
5	CCCCOC(=O)C1C2C=C[C@]3(CN(C(C)c4ccc(OC)cc4)C(=O)[C@H]13)O2 (stereo partly drawn)	inactive: -1.6%
6	O=C(NCCc1ccccc1)C1CCCN(S(=O)(=O)c2cccc3nonc23)C1 (stereo not drawn)	inactive: -1%

The listing continues.

Row | Structure (SMILES) | inhibition
25 | Cc1ccccc1NC(=O)CN1CCC(NC(=O)Nc2ccccc2)CC1 | inactive: -6.3%
26 | COc1ccc(C2c3ccc4ccccc4c3Oc3ncn(CCCO)c(=N)c32)cc1OC (stereo not drawn) | inconclusive: 22.8%
27 | CCOc1nc(Nc2ccc(OC)cc2OC)nc(OCC)n1 | inconclusive: 8.2%
28 | Cc1noc(NS(=O)(=O)c2ccc(NC(=O)c3ccc(N(C)C)cc3)cc2)c1C | inactive: -3.7%
29 | CCOC(=O)C1(CC)NC(c2ccc(OC)c(OC)c2)C2C(=O)N(c3cccc(C(C)=O)c3)C(=O)C21 (stereo not drawn) | inconclusive: -25.5%
30 | CC(C)[C@H]1COCCS(=O)(=O)N1Cc1ccccc1 | inactive: 1.1%
31 | COc1ccc(C=O)cc1CSc1ncccc1C(=O)O | inactive: -15.9%
32 | O=C(CCN1CCCCC1c1cccnc1)NCc1ccccc1 (stereo not drawn) | inconclusive: -7.8%
33 | COc1ccc(N=C2SCC(c3ccc(C)cc3)=NN2CCO)cc1 | inconclusive: -173%
34 | CCC(c1ccccc1)c1noc(CCN(CC)CC)n1 (stereo not drawn) | inactive: -3.6%
35 | COc1cccc(C(=O)NN=C2CCCC2)c1 | inconclusive: -24.7%
36 | CCN(CC(=O)Nc1c(F)cccc1F)C(=O)c1csc2c1CCCC2 | inconclusive: -7.9%
37 | Cc1ccc(CSCCNC(=O)c2ccc(Cl)c(S(=O)(=O)N3CCOCC3)c2)cc1 | inactive: -1.9%
38 | O=C(Nc1cccnc1)C1COc2ccccc2O1 (stereo not drawn) | inconclusive: 20.9%
39 | CCOC(=O)N1CCN(CCC(=O)Nc2cccc(Cl)c2C)CC1 | inactive: -12%
40 | COC(=O)C(CCSC)NC(=O)c1cn(-c2ccc(OC)cc2)c(=O)c2ccccc12 (stereo not drawn) | active: 35.5%
41 | Cc1oc(C)c(S(=O)(=O)NCc2cccs2)c1C(=O)O | inconclusive: -8.1%
42 | O=C(CNC(=O)c1ccncc1)N/N=C/c1ccc(Br)cc1 | inconclusive: -74.6%
43 | CCCCn1c2ccccc2c2cc(CC(N)=O)ccc21 | inconclusive: 152%
44 | Cc1nccn1CC(=O)N/N=C/c1cc(Br)cs1 | inconclusive: 133%
45 | CCCNC(=O)Nc1cccc(C(=O)OC)c1 | inconclusive: 11.8%
46 | Cc1ccc(SCc2noc(-c3c(C)noc3C)n2)cc1 | inconclusive: 8.5%
47 | O=c1c2ccccc2[se]n1-c1ccccc1 | active: 38.3%
48 | O=C(NCc1cccnc1)c1c(F)c(F)c(F)c(F)c1F | inactive: 14.8%

As entered above.
For inhibition, O=C(Nc1ccc2c(c1)oc1ccccc12)c1cccnc1 reads inactive: -10%
For inhibition, O=C(Cc1cccs1)Nc1ccc(S(=O)(=O)N2CCCCC2)cc1 reads inconclusive: 12.2%
For inhibition, Cc1cccc(C(=O)NNC(=O)c2ccccc2Br)c1 reads active: 44.8%
For inhibition, CCCCOC(=O)C1C2C=C[C@]3(CN(C(C)c4ccc(OC)cc4)C(=O)[C@H]13)O2 (stereo partly drawn) reads inactive: -1.6%
For inhibition, COc1cc(C2=NOC(C(=O)N3CCN(c4ccc(F)cc4)CC3)C2)cc(OC)c1OC (stereo not drawn) reads inactive: -2.5%
For inhibition, O=S(=O)(Nc1ccncc1)c1cc(Cl)ccc1Cl reads inconclusive: -12.1%

Additional results follow.

Row | Structure (SMILES) | inhibition
49 | COc1ccc(C(=O)N2CCOCC2c2cc(C(=O)NCc3ccccc3)no2)cc1 (stereo not drawn) | inactive: 6.7%
50 | Cc1[nH]c2ccccc2c1C(=O)C(=O)NCc1ccncc1 | inconclusive: -3.7%
51 | CNNC(=S)NCCC1=CCCCC1 | inconclusive: -271%
52 | Cc1ccc(S(=O)(=O)N2CCC(NC(=O)c3cccc(F)c3)CC2)cc1 | inconclusive: 21.7%
53 | Cc1ccc(C(=O)/C=C/c2ccc3ncccc3c2)cc1 | inconclusive: 20.5%
54 | CN(C(=O)COC(=O)CCCN1C(=O)c2cccc3cccc(c23)C1=O)C1CCS(=O)(=O)C1 (stereo not drawn) | inactive: 7%
55 | Cc1ccccc1OCCOc1cccc(/C=N/NC(=O)Cc2nnc(N)s2)c1 | inconclusive: -8.8%
56 | COc1ccc(NC(=O)CSc2nncn2N)c(OC)c1 | inconclusive: 21.5%
57 | O=C(Cc1ccc(Br)cc1)N1CCN(C(=O)c2ccccc2)CC1 | inactive: 1.5%
58 | COc1ccc(OCC(=O)O/N=C(\N)c2ccc(OC)cc2)cc1 | inconclusive: -37.8%
59 | CC(=O)Nc1cc(NC(C)=O)cc(C(=O)OCC(=O)N2CC(C)OC(C)C2)c1 (stereo not drawn) | inconclusive: 6.4%
60 | CSc1ccccc1C(=O)Nc1ncn[nH]1 | inconclusive: -46.7%
61 | c1ccc(N=NC2=NN(c3ccccc3)CS2)cc1 | inactive: -19.5%
62 | COc1ccc(OC)c(NC(=O)CCC(=O)Oc2ccc(C)cc2)c1 | inconclusive: -0.9%
63 | COc1cc(C2C(C(=O)c3cccs3)=C(O)C(=O)N2CCN2CCOCC2)cc(OC)c1OC (stereo not drawn) | inconclusive: 19.2%
64 | c1ccc2c(c1)Nc1cc3ccccc3cc1S2 | inconclusive: -19.4%
65 | O=C(NC(c1cccnc1)c1ccc2c(c1)OCO2)C1CCN(CCOc2ccc(Cl)cc2Cl)CC1 (stereo not drawn) | inactive: -6.4%
66 | CN(Cc1ccccc1)C(=O)c1ccccc1Br | inactive: -6.2%
67 | CC(=O)Nc1ccc(-c2nnc(SCC(=O)n3c4c(c5ccccc53)CCCC4)n2C)cc1 | inactive: 4%
68 | c1ccc(Cn2cc(CN3CCCO3)c(-c3ccc4c(c3)OCO4)n2)cc1 | inactive: -1.6%
69 | C=CCN(C(=O)Nc1ccc(OC)cc1)c1nnc(-c2ccncc2)s1 | inconclusive: -6%
70 | O=C1CN(C(=O)c2ccccc2)c2ccccc2N1 | inactive: 2.6%
71 | CC12CCC(=O)N1C(C(=O)N1CCN(c3ccc([N+](=O)[O-])cc3)CC1)CS2 (stereo not drawn) | inactive: -10.3%
72 | COc1ccc(-c2nn(-c3ccccc3)cc2C(=O)N2CCN(S(=O)(=O)c3ccccc3C#N)CC2)cc1 | inconclusive: -5.8%

Row | Structure (SMILES) | inhibition
73 | COC(=O)c1cc(-c2cccc([N+](=O)[O-])c2)c2c(=O)n(C)c(=O)n(C)c2n1 | inconclusive: -18.8%
74 | Cc1ccc(Nc2ccc([N+](=O)[O-])ccc2=O)cc1 | inconclusive: -161%
75 | CC(=O)c1cccc(NC(=O)c2ccc([N+](=O)[O-])o2)c1 | inconclusive: 59.4%
76 | CCOc1cccc(C(=O)Nc2ccc(N3CCCC3)cc2)c1 | inconclusive: -214%
77 | COc1cccc(NC(=O)CSc2nnnn2C(C)C)c1 | inconclusive: -5.5%
78 | CC(=O)N1CCc2c(sc(NC(=O)C3CC3)c2-c2nc3ccccc3s2)C1 | inactive: 1%
79 | Cc1ccnc(NS(=O)(=O)c2ccccc2)c1 | inconclusive: -34.9%
80 | Cc1ccc(NCc2nnc(SCC(=O)c3ccc4c(c3)OCCO4)o2)c(C)c1 | inactive: 0.1%
81 | O=C(Nc1ccc(Cl)cc1)N1CCOC12CCCCC2 | inactive: -4.2%
82 | COc1cccc(-c2cnc3c(c2)C(=O)N([C@H](C)CO)C[C@@H](C)[C@H](CN(C)C(=O)Nc2ccccc2F)O3)c1 | inactive: -1.7%
83 | CC1=CC(c2ccccc2)n2nc(N3C(=O)CCC3=O)nc2N1 (stereo not drawn) | inconclusive: 2.1%
84 | COCC(=O)Nc1nc2n(n1)C(c1ccc(Cl)cc1)CC(c1ccc(OC)cc1)N2 (stereo not drawn) | inactive: -8.3%
85 | O=C(NC(Sc1ccc(Cl)cc1)C(=O)O)c1ccccc1 (stereo not drawn) | inactive: -2.8%
86 | CCOC(=O)CC(=O)CSc1ccc2nnc(-c3ccc(C)cc3)n2n1 | inactive: 3.9%
87 | O=C(NC(Cc1ccccc1)C(=O)O)/C(=C\c1ccccc1)NC(=O)c1ccc(Br)o1 (stereo not drawn) | inactive: 4.7%
88 | N/C(=N\N=C\c1ccc(Br)o1)c1nonc1N | inconclusive: -45.7%
89 | CC1=CC(=O)OC1Cc1ccncc1 (stereo not drawn) | inconclusive: -20%
90 | CCN(CC)Cc1c(O)c(Cl)cc2c(C)c(C)c(=O)oc12 | inconclusive: -2.3%
91 | O=C(NC(=S)Nc1cccc(F)c1)c1cccc([N+](=O)[O-])c1 | inconclusive: -52.3%
92 | CCCN(CCC)Cc1c(C(=O)N/N=C/CCc2ccccc2)nnn1-c1nonc1N | inactive: -5.6%
93 | COc1ccc(/C(C)=N\NC(=O)C(c2ccncc2)N2CCOCC2)cc1 (stereo not drawn) | inconclusive: 43.9%
